This passage reports inhibition results from ChEMBL document CHEMBL1914304 (J Med Chem, 2011).

Amino acid sequences for entries named in this document (tags omitted).
UniProt Q13936, whole entry: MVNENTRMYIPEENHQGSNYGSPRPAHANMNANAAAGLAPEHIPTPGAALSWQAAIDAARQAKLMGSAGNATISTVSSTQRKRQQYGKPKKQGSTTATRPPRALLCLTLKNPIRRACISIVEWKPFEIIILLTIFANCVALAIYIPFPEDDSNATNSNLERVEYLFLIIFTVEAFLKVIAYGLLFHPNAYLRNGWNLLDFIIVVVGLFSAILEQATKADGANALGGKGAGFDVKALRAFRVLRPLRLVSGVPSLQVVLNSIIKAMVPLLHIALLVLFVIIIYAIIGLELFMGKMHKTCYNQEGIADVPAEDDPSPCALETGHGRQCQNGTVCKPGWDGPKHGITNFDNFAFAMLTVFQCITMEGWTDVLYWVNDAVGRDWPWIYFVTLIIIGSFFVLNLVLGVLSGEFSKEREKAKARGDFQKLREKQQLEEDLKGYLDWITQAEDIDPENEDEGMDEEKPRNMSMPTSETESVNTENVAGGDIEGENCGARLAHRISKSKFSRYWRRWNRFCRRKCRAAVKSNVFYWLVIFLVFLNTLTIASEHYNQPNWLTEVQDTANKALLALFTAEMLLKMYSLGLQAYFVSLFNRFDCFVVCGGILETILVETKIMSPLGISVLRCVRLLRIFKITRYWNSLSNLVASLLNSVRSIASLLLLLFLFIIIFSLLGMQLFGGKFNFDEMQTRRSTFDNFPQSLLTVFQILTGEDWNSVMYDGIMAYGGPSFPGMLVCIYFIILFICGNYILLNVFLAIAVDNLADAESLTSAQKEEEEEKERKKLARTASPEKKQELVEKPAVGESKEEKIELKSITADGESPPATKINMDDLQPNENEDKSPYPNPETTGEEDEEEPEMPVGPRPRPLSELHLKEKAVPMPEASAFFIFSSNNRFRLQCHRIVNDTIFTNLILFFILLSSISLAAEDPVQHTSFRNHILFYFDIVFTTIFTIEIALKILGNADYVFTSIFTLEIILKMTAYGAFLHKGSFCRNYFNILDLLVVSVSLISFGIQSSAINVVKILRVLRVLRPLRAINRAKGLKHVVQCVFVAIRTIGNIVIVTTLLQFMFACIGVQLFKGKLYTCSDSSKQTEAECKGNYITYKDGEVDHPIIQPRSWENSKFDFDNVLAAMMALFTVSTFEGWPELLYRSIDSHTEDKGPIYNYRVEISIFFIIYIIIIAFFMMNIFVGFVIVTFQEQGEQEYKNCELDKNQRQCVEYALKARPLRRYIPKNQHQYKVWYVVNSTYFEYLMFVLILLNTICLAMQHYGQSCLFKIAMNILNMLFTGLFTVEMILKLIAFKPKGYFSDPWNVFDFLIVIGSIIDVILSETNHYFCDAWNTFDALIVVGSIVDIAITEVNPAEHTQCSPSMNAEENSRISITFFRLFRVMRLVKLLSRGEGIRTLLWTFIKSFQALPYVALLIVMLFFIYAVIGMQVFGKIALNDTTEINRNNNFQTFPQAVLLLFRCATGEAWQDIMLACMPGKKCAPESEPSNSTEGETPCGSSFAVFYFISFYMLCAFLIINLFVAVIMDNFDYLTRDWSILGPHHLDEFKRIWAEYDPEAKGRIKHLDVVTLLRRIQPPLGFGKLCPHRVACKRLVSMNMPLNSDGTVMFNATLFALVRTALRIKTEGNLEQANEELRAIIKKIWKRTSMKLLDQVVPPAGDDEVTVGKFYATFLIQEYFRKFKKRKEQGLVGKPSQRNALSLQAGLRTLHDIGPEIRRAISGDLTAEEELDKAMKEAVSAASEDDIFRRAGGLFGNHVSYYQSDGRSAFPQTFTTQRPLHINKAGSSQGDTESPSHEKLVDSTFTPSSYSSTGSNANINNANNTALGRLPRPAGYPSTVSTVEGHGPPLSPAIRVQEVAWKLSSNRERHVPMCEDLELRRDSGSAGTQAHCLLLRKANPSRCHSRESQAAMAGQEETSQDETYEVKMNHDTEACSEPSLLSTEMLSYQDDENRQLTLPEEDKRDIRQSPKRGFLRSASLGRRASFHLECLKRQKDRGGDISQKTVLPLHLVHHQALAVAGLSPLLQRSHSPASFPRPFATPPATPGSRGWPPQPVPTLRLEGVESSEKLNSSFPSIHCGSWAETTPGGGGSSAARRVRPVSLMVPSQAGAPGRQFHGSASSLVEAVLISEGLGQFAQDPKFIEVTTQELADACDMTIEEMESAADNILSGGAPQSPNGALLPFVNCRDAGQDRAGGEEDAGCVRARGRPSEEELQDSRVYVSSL

Molecules are shown by their SMILES.

This data set concerns the target Cav1.2 (Homo sapiens, UniProt Q13936). Description: in vitro.

Usually inhibition stands for how much of the control response was suppressed. The low end stands for little suppression, the high end for strong suppression. On to `CCCNCC(O)COc1ccccc1C(=O)CCc1ccccc1` (racemic) [PROPAFENONE], for which the inhibition at 5 min, 10 µM was 72.5%.
